The values below come from patent US4395274A, “Microbicidal agent and its use” (Bayer Aktiengesellschaft, priority 1979, dated 1983).

In this series the test system is fungus. Description: paper production: pulp feeding system, losses of active compound, effluent and discharged air. Conditions: 0.5% by weight of paper added to the pulp. Here is the method:
Based on the weight of the paper (90 to 100 g/m^2) 0.5% of A/B=6/1 is homogeneously mixed under a pulp (density 1%, pH value 4.8) having the following composition:
If, however, as is customary, owing to the lack up until now of usable alternatives, 0.5% of sodium pentachlorophenolate (related to the weight of the paper) is added to the pulp, losses of active compound amounting to more than 50% occur (approx. 25% are found in the effluent and approx. 25% in the outgoing air).

As to `[Na+].[O-]c1c(Cl)c(Cl)c(Cl)c(Cl)c1Cl` [sodium pentachlorophenolate], the “active compound found in the effluent” value is recorded as “approx. 25%”, the “active compound found in the outgoing air” value was “approx. 25%” and the “losses of active compound” value is listed as “more than 50%”.
